# In PubChem BioAssay (Tox21):
# The chains behind the UniProt entries cited, without tags or fusion partners. Where a name states a change or a piece, a line headed by the entry shows the natural chain unless it says otherwise.
# UniProt P11712, whole entry, looked up: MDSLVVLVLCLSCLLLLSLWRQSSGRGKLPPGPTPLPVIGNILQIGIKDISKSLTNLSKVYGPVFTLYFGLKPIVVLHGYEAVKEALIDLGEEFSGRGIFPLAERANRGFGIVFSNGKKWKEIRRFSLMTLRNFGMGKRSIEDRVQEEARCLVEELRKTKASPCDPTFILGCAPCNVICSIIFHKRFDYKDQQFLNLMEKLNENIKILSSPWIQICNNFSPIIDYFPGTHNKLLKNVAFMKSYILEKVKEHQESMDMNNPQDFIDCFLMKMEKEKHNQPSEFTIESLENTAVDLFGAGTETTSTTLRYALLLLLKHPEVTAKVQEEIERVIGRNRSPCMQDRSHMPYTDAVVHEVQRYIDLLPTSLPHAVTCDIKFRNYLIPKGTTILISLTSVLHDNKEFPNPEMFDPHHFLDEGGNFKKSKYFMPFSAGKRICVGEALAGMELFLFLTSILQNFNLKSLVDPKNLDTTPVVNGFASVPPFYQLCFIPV
# UniProt P05177, whole entry, looked up: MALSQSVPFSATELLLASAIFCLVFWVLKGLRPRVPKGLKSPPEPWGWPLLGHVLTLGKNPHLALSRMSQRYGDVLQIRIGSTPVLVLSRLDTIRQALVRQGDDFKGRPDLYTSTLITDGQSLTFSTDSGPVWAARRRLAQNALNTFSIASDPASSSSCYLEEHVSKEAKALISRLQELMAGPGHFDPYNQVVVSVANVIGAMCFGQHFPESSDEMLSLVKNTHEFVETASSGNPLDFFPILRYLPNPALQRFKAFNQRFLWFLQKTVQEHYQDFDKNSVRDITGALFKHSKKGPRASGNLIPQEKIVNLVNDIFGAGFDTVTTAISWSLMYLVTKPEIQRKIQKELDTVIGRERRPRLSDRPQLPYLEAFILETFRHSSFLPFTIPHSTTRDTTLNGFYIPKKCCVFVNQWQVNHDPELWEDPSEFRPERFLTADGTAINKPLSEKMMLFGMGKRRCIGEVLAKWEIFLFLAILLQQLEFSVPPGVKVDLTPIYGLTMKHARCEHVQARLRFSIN
# UniProt P10635, whole entry, looked up: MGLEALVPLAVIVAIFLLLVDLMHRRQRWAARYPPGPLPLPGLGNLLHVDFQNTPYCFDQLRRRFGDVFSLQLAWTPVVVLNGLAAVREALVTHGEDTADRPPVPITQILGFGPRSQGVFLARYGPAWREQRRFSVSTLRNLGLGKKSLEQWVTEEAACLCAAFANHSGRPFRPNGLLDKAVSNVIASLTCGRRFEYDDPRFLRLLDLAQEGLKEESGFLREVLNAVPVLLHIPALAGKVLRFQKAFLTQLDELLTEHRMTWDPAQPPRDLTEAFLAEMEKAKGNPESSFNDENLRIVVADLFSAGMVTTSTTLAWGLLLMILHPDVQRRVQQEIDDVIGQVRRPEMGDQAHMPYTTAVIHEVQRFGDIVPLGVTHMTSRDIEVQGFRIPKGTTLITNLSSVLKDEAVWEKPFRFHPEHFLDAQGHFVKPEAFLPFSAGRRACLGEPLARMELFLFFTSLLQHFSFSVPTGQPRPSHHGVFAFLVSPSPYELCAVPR
# UniProt P08684, whole entry, looked up: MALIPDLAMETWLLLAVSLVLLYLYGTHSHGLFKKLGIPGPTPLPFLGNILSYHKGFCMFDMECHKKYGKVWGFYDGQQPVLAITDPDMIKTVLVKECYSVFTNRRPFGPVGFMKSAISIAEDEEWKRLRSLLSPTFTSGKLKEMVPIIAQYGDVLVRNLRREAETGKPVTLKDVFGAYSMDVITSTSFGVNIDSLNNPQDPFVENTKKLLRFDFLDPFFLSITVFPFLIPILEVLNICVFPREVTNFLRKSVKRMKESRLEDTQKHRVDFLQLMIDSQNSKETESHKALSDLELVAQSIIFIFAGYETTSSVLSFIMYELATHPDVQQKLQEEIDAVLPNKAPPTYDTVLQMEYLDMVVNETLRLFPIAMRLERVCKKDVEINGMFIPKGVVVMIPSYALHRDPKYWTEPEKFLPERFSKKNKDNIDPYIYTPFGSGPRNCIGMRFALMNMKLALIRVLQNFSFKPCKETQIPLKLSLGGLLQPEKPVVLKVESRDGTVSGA
# UniProt P33261, whole entry, looked up: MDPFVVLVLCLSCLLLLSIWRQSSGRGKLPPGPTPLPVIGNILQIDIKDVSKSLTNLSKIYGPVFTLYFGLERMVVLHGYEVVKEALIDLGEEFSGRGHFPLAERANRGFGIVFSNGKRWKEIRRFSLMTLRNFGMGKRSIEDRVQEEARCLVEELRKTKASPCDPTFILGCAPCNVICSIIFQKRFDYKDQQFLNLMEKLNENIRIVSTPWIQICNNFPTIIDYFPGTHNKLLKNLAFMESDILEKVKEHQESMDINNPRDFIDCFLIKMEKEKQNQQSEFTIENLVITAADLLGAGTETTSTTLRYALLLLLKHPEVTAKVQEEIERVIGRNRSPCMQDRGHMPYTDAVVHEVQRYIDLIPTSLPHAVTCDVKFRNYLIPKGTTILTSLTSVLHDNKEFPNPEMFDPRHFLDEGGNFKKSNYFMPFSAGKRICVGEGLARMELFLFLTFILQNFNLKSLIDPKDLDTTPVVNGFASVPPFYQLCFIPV
# UniProt Q12809: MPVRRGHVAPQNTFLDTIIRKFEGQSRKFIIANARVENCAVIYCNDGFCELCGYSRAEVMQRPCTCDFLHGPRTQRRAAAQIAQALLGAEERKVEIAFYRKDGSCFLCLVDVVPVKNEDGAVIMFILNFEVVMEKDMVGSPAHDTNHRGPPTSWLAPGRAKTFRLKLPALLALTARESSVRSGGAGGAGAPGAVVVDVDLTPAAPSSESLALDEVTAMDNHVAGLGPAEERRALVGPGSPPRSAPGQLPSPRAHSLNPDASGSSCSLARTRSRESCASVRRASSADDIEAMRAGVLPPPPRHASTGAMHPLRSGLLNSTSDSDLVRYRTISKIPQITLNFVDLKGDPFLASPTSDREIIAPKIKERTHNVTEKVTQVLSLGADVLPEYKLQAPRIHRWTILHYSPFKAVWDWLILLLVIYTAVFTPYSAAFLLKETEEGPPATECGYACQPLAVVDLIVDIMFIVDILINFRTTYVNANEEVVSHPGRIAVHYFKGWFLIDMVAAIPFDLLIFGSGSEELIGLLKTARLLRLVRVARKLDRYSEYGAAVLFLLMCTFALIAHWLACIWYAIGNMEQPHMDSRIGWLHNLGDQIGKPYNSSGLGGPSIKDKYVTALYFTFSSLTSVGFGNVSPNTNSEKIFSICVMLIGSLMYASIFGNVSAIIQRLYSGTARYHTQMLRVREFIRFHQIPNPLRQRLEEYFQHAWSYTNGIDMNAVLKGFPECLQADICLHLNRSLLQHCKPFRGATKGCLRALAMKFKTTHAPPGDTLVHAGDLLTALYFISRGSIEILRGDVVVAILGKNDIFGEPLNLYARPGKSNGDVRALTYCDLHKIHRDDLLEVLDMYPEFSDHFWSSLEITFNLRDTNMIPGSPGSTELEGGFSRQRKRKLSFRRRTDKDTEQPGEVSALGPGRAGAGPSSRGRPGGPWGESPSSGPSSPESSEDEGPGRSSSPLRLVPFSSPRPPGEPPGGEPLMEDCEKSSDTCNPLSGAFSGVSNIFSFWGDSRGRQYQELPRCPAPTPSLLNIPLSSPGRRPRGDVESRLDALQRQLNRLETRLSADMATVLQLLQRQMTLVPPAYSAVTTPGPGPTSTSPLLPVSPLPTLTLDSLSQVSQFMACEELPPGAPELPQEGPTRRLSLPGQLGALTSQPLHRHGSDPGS
# UniProt Q9R1A7: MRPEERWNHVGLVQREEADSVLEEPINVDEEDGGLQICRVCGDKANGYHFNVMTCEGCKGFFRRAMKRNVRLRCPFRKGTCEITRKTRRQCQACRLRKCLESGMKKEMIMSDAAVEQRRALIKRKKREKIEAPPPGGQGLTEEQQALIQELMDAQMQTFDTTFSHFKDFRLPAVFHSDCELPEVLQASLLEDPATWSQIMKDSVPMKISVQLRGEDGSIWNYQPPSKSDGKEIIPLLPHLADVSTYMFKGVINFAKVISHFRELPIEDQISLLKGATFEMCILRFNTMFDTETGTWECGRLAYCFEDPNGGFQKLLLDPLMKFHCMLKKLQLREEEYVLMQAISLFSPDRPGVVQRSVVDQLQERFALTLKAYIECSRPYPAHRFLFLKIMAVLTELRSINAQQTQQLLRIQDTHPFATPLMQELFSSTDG
# Several values for one entry are separate records, joined by “and”; a condition that tells them apart may be missing. Equal values may be shown once. Inconclusive means that the source gave no clear call. Such entries were picked first, then a sample of the others. For some of these results: Potencies of inconclusive entries are doubtful fits and often do not repeat. Some compounds were tested as several samples or in several runs, with calls that do not always agree. Activity calls are given as the source filed them. Calls come from the whole dose curve; as a rule, active = well fitted curve in the direction sought with a large enough effect in the repeat runs; inconclusive = weak or mixed curves; inactive = no such curve, though single readings can be large; an effect the other way counts as inactive or inconclusive.
# Tests used:
# [1] = biological target: Nuclear receptor subfamily 1 group I member 2 (Homo sapiens) (UniProt O75469); test: Human pregnane X receptor (PXR) small molecule agonists, qHTS assay (AID 1346982); note: nearly all actives have a fitted effect of over 35% in size; note: potency is the fitted concentration of half-maximal effect; for activation: % is set by controls: 0 for no effect and ±100 for the full control effect
# Procedure, shortened: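 PXR-Luc HepG2 cells (CYP3A4 promoter-driven luciferase) were seeded in medium with 5% charcoal-stripped FBS, left 5 hr at 37 C, then exposed to compounds in DMSO for 24 hr. Luminescence was read after ONE-Glo addition.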
# [2] = biological target: Cytochrome P450 2C9 (Homo sapiens) (UniProt P11712); test: Cytochrome P450 Family 2 Subfamily C Member 9 (CYP2C9) small molecule antagonists: luciferase reporter qHTS assay (AID 1671198); note: nearly all actives have a fitted effect of over 50% in size; note: potency is the fitted concentration of half-maximal effect; for activity change, negative = inhibition: series mostly up to about 120 µM; % is set by controls: 0 for no effect and ±100 for the full control effect
# Procedure, shortened: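 P450-Glo proluciferin substrate with CYP2C9 enzyme; 10 min RT preincubation, then NADPH regeneration 1 h at 37C; luciferin detection reagent 20 min RT, luminescence in relative luminescence units.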
# [3] = biological target: Cytochrome P450 1A2 (Homo sapiens) (UniProt P05177); test: Cytochrome P450 Family 1 Subfamily A Member 2 (CYP1A2) small molecule antagonists: luciferase reporter qHTS assay (AID 1671199); note: nearly all actives have a fitted effect of over 50% in size; note: potency is the fitted concentration of half-maximal effect; for activity change, negative = inhibition: series mostly up to about 120 µM; % is set by controls: 0 for no effect and ±100 for the full control effect
# Procedure, shortened: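 Human CYP1A2 activity measured with a P450-Glo proluciferin substrate; compounds in DMSO preincubated 10 min at room temperature with enzyme-substrate mix, then NADPH regeneration system added for 1 h. Luciferin detection reagent, 20 min, luminescence read.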
# [4] = biological target: Nuclear receptor subfamily 1 group I member 2 (Homo sapiens) (UniProt O75469); test: CYP3A4 induction through human pregnane X receptor (PXR) by small molecules, qHTS assay (AID 1346984); note: nearly all actives have a fitted effect of over 40% in size; note: potency is the fitted concentration of half-maximal effect
# Procedure, shortened: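 DPX-2 cells (HepG2 co-transfected with PXR and CYP3A4 promoter-luciferase) treated with compounds 24 h at 37C; luciferin-IPA CYP3A4 substrate 3uM final added for 3 h, then One-Glo; luminescence read. qHTS format.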
# [5] = biological target: Nuclear receptor subfamily 1 group I member 2 (Homo sapiens) (UniProt O75469); test: Human pregnane X receptor (PXR) activation by small molecules, qHTS assay (AID 1346985); note: nearly all actives have a fitted effect of over 40% in size; note: potency is the fitted concentration of half-maximal effect
# Procedure, shortened: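 DPX-2 cells (HepG2 co-transfected with a PXR response element and a CYP3A4-promoter luciferase construct) were seeded at 2,000 per well, rested 5 hr at 37C, then exposed to DMSO-dissolved compounds for 24 hr. Activation was read as luciferase luminescence.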
# [6] = biological target: Cytochrome P450 2D6 (Homo sapiens) (UniProt P10635); test: Cytochrome P450 Family 2 Subfamily D Member 6 (CYP2D6) small molecule antagonists: luciferase reporter qHTS assay (AID 1671196); note: nearly all actives have a fitted effect of over 50% in size; note: potency is the fitted concentration of half-maximal effect; for activity change, negative = inhibition: series mostly up to about 120 µM; % is set by controls: 0 for no effect and ±100 for the full control effect
# Procedure, shortened: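 CYP2D6 enzyme–substrate mix was held with compound for 10 min at room temperature, then NADPH regeneration solution was added and the reaction ran 1 h at room temperature. Luciferin product was detected by luminescence after 20 min with detection reagent.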
# [7] = biological target: Cytochrome P450 3A4 (Homo sapiens) (UniProt P08684); test: Cytochrome P450 Family 3 Subfamily A Member 4 (CYP3A4) small molecule antagonists: luciferase reporter qHTS assay (AID 1671201); note: series mostly up to about 120 µM; % is set by controls: 0 for no effect and ±100 for the full control effect; nearly all actives have a fitted effect of over 50% in size
# Procedure, shortened: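 Enzyme and proluciferin substrate are mixed with test chemicals for 10 min, then NADPH regeneration system drives turnover for 1 h at room temperature. A detection reagent halts the reaction; luminescence after 20 min gives relative activity.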
# [8] = biological target: Cytochrome P450 2C19 (Homo sapiens) (UniProt P33261); test: Cytochrome P450 Family 2 Subfamily C Member 19 (CYP2C19) small molecule antagonists: luciferase reporter qHTS assay (AID 1671197); note: nearly all actives have a fitted effect of over 65% in size; note: potency is the fitted concentration of half-maximal effect
# Procedure, shortened: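 Relative luminescence units recorded 20 min after the detection reagent stopped a 1 h, 37C CYP2C19 reaction on proluciferin substrate, which was started by NADPH regeneration following 10 min room-temperature compound preincubation; ketoconazole positive control.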
# [9] = biological target: Voltage-gated inwardly rectifying potassium channel KCNH2 (Homo sapiens) (UniProt Q12809); test: Human Ether-a-go-go-Related Gene (hERG) channel small molecule antagonists: fluorescence cell-based qHTS assay (AID 1671200)
# Procedure, shortened: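 First, 1000 cells per well are seeded and cultured overnight at 37 C. Next, FluxOR II dye is loaded for 1 h at room temperature, protected from light. After 10 more minutes, stimulus is added and fluorescence is read.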
# [10] = biological target: Nuclear receptor subfamily 1 group I member 2 (Rattus norvegicus) (UniProt Q9R1A7); test: Rat pregnane X receptor (rPXR) activation by small molecules, qHTS assay (AID 1346983); details: rPXR luciferase reporter cells, One-Glo luminescence, 24 h; max activation: hits give high values; note: nearly all actives have a fitted effect of over 20% in size; note: potency is the fitted concentration of half-maximal effect
# Procedure, shortened: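 Cell-based rPXR activation assay: rPXR cells, 2,000 per well, rested 5hr at 37 C, then exposed to compounds in DMSO for 24 hr at 37 C. Luciferase activity read by One-Glo luminescence after 30 min at room temperature.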
smiles,measurement,setting,value
CCNC(=S)NCC,Potency,[1],"inconclusive: 24.1 µM [activator, partial curve]"
same,Potency,[2],inactive
Cc1ccc(C(C)C)cc1,Potency,[1],"inconclusive: 77.4 µM [activator, partial curve, poor fit]"
same,Potency,[3],"inconclusive: 31.9 µM [inhibitor, partial curve, poor fit]"
Cc1ccc(Cl)cc1,Potency,[1],inactive
same,Potency,[2],"inconclusive: 84.1 µM [inhibitor, partial curve, poor fit]"
same,Potency,[3],"inconclusive: 79.6 µM [inhibitor, partial curve, poor fit]"
CCOC(=O)CC(CC(=O)OCC)(OC(C)=O)C(=O)OCC,Potency,[1],"inconclusive: 24.3 µM [activator, partial curve]"
same,Potency,[3],"inconclusive: 35.6 µM [inhibitor, partial curve]"
CC(C)CC(=O)C1C(=O)c2ccccc2C1=O,Potency,[1],inconclusive: 54.5 µM [activator]
same,Potency,[3],active: 35.6 µM
CC(C)(C)Cl,Potency,[1],"inconclusive: 64.4 µM [activator, single point]"
same,Potency,[2],inactive
same,Potency,[3],inactive
Oc1ccccc1C=NCc1ccccc1,Potency,[4],active: 14.1 µM
same,Potency,[5],"inconclusive: 20 µM [activator, single point]"
same,Potency,[6],"inconclusive: 34.7 µM [inhibitor, partial curve]"
same,Potency,[2],inactive
OC[C@H]1O[C@@H](Oc2ccc(O)cc2)[C@H](O)[C@@H](O)[C@@H]1O,Potency,[4],"inconclusive: 28.2 µM [activator, single point]"
same,Potency,[6],"inconclusive: 43.6 µM [inhibitor, single point]"
same,Potency,[7],inactive
Cc1c(I)c(=O)n(-c2ccccc2)n1C,Potency,[4],"inconclusive: 14.1 µM [activator, single point]"
same,Potency,[6],inactive
same,Potency,[8],inactive
same,Potency,[2],"inconclusive: 38.9 µM [inhibitor, partial curve]"
CCOC(CN1CCN(CC(C)C(=O)c2ccccc2)CC1)c1ccccc1 (stereo unspecified),Potency,[4],"inconclusive: 6.31 µM [activator, full curve, poor fit]"
same,Potency,[2],"inconclusive: 13.5 µM [inhibitor, partial curve]"
same,"activity change, negative = inhibition",[3],inactive: 12.6% [at 23.6 µM]
same,Potency,[9],active: 10.4 µM
CC1(C)C(O)C(C)(C)C1O (stereo unspecified),Potency,[6],inactive
Cc1ccc(-c2ncc(Cl)cc2-c2ccc(S(C)(=O)=O)cc2)cn1,Potency,[4],"inconclusive: 22.4 µM [activator, partial curve, poor fit]"
same,Potency,[6],inconclusive: 30.9 µM [inhibitor]
C[C@]12CCC(=O)C=C1CC[C@H]1[C@@H]3CC[C@](O)(C(=O)CO)[C@@]3(C)C[C@H](O)[C@@]12F,Potency,[10],"inconclusive: 14.1 µM [activator, partial curve]"
same,Potency,[2],"inconclusive: 27.5 µM [inhibitor, partial curve]"
Cc1nnc(SCC2=C(C(=O)O)N3C(=O)[C@@H](NC(=O)Cn4cnnn4)[C@H]3SC2)s1,Potency,[4],inactive
same,Potency,[8],inactive
same,Potency,[2],"inconclusive: 17.4 µM [inhibitor, partial curve]"
same,Potency,[3],"inconclusive: 34.7 µM [inhibitor, partial curve]"
CC(=O)OCC(=O)[C@H]1CC[C@H]2[C@@H]3CCC4=CC(=O)CC[C@]4(C)[C@H]3CC[C@]12C,max activation,[10],inactive: 2.69%
same,Potency,[6],"inconclusive: 17.4 µM [inhibitor, partial curve]"
same,Potency,[3],inactive
CCN(CC)C(=O)Nc1ccc(OCC(O)CNC(C)(C)C)c(C(C)=O)c1 (stereo unspecified),max activation,[10],inactive: 1.62%
same,Potency,[6],"inconclusive: 27.5 µM [inhibitor, partial curve]"
CCN(CC)C(=O)c1ccc(O)c(OC)c1,Potency,[5],inactive
O=C1O[C@H]([C@@H](O)CO)C(O)=C1O,max activation,[10],inactive: -0.298% and inactive: -0.0182%
same,Potency,[3],"inconclusive: 44.8 µM [inhibitor, partial curve] and inconclusive: 62.8 µM [inhibitor, partial curve]"
C/C=C/c1ccc(OC)cc1,Potency,[4],inactive
same,Potency,[8],"inconclusive: 91.3 µM [inhibitor, single point]"
same,Potency,[2],"inconclusive: 72.5 µM [inhibitor, partial curve, poor fit]"
same,Potency,[3],"inconclusive: 40.8 µM [inhibitor, partial curve]"
N#C/C(=C1\SCC(c2ccccc2Cl)S1)n1ccnc1 (stereo unspecified),Potency,[5],active: 14.1 µM
same,Potency,[3],active: 0.871 µM
Cc1cccc(C)c1NC(=O)CN(CC(=O)O)CC(=O)O,Potency,[5],inactive
same,Potency,[8],inactive
same,Potency,[3],"inconclusive: 30.9 µM [inhibitor, partial curve]"
same,Potency,[7],inactive
Cc1cc(CC(=O)O)c(C)n1-c1ccc(Cl)cc1,Potency,[6],"inconclusive: 15.5 µM [inhibitor, full curve]"
O=C1C(CCS(=O)c2ccccc2)C(=O)N(c2ccccc2)N1c1ccccc1 (stereo unspecified),Potency,[6],"inconclusive: 21.9 µM [inhibitor, partial curve]"
CC(=O)OCc1ccc2c(c1)OCO2,Potency,[6],"inconclusive: 63.4 µM [inhibitor, partial curve]"
CCC(=O)O[C@]1(C(=O)CCl)[C@@H](C)C[C@H]2[C@@H]3CCC4=CC(=O)C=C[C@]4(C)[C@@]3(F)[C@@H](O)C[C@@]21C,Potency,[10],active: 2.24 µM
same,Potency,[8],"inconclusive: 38.9 µM [inhibitor, partial curve, poor fit]"

# Shown with tabs: part of the list above.
smiles	measurement	setting	value
Cc1ccc(-c2ncc(Cl)cc2-c2ccc(S(C)(=O)=O)cc2)cn1	Potency	[6]	inconclusive: 30.9 µM [inhibitor]
C[C@]12CCC(=O)C=C1CC[C@H]1[C@@H]3CC[C@](O)(C(=O)CO)[C@@]3(C)C[C@H](O)[C@@]12F	Potency	[10]	inconclusive: 14.1 µM [activator, partial curve]
